Source: PMC4996945, “Crosstalk between MSH2–MSH3 and polβ promotes trinucleotide repeat expansion during base excision repair”
For at least one entry, the source does not settle the construct or the ends of the probe.

Test system: OGG1
Test: gel filtration
Details: 1:1:1 OGG1, MSH2-MSH3, DNA, OGG1-DNA peak resolved from MSH2-MSH3-DNA; one 8-oxo-G (stated position 17, exact G not marked in text); complement not given; 10 mM HEPES pH 8.1, 110 mM NaCl, 1 mM DTT, 0.1 mg/ml BSA, 10% glycerol, 0.25% inositol, 5 mM Mg2+, 2 mM ATP, 2 mM ADP; on ice; recombinant protein

## CAAGCACGTTGACTACCGTCCAGCAGCAGCAGCAGCAGCAGCAGCAGCAGCAGCAGCAGTTTGAGGCAGAGTCCGAACAC (double strand) [CAG-duplex (80) with one 8-oxo-G]
  binding result: binds
